# According to paper PMC8414691:
# Sequences of proteins named here, by UniProt entry; tags and fusion partners are left off.
# UniProt Q6ZRS2: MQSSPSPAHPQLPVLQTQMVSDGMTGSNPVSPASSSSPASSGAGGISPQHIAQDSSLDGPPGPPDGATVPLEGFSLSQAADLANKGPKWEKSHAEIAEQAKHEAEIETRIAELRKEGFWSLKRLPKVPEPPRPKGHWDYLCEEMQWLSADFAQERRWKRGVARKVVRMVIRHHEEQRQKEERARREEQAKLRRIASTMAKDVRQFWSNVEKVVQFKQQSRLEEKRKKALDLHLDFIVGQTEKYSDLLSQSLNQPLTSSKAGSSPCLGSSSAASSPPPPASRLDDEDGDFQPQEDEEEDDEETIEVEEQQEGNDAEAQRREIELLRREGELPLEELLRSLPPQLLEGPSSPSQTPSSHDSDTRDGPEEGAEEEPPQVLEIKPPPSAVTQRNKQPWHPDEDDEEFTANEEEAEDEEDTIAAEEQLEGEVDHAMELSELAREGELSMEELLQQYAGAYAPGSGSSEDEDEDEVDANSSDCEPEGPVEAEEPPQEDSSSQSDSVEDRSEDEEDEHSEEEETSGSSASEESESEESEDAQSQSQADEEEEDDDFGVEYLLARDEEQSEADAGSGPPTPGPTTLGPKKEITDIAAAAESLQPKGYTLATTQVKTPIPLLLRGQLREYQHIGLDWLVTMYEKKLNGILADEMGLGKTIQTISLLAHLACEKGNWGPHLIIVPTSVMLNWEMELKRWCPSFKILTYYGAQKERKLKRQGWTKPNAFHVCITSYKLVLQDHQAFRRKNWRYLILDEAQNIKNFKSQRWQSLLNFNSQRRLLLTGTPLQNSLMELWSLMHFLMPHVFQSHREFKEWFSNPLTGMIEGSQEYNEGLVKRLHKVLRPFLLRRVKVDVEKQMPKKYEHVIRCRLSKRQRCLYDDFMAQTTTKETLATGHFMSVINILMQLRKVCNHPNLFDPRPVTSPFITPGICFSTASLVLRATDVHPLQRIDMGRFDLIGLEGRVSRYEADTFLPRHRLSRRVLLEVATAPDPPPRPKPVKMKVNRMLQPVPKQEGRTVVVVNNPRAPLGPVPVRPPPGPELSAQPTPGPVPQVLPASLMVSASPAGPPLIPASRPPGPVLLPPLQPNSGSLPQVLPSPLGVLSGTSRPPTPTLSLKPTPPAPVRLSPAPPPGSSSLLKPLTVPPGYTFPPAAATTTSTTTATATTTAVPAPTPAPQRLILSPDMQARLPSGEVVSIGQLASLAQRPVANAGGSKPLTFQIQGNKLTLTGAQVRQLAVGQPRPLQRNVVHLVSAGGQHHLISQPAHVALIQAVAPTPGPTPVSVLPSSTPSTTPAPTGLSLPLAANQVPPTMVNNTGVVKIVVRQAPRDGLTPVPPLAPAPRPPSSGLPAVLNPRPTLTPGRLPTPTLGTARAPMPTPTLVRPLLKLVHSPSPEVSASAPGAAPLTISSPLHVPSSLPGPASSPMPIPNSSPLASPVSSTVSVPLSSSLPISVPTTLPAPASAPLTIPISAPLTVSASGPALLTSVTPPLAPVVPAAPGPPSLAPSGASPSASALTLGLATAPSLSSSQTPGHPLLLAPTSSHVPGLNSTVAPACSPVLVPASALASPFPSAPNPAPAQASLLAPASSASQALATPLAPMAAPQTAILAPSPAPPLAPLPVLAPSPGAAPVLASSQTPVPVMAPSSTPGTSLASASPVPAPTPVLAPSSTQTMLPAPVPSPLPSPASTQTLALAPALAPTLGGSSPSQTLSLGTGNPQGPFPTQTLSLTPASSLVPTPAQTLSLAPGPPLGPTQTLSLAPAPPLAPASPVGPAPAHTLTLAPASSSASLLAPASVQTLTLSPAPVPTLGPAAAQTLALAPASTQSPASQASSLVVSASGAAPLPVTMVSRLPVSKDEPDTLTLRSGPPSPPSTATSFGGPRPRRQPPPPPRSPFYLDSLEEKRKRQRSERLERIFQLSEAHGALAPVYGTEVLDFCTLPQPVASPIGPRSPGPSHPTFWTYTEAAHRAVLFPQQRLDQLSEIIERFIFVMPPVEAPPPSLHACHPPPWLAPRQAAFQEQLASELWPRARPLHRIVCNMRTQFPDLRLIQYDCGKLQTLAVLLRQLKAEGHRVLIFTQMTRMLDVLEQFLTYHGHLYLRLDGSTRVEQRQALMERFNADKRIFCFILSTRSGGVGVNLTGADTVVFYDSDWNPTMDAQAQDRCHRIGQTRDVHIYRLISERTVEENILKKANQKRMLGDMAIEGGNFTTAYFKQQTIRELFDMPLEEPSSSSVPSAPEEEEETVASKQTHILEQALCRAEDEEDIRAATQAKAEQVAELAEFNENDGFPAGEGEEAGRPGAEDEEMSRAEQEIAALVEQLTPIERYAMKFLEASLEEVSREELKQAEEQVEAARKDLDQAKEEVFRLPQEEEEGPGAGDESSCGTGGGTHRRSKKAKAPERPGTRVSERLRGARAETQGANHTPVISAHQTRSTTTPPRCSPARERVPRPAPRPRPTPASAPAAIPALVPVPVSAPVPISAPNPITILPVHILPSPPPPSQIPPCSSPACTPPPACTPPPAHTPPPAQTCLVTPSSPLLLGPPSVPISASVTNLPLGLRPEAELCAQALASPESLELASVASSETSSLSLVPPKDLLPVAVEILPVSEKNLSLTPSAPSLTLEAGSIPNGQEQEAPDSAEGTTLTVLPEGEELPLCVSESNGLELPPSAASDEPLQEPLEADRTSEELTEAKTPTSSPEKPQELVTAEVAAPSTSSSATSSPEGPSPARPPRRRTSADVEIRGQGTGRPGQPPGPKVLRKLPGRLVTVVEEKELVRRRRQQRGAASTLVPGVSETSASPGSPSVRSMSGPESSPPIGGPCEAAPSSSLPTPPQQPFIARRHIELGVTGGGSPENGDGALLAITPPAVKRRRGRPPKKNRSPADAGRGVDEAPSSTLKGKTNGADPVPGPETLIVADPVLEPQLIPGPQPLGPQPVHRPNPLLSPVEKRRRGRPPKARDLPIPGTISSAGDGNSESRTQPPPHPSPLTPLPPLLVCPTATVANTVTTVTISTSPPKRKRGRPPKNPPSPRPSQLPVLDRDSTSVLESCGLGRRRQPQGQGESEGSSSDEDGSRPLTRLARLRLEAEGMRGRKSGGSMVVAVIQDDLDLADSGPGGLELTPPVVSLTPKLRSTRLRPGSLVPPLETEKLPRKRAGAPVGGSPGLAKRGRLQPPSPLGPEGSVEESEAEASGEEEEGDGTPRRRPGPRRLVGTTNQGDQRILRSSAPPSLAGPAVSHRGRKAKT
# UniProt Q96GD4: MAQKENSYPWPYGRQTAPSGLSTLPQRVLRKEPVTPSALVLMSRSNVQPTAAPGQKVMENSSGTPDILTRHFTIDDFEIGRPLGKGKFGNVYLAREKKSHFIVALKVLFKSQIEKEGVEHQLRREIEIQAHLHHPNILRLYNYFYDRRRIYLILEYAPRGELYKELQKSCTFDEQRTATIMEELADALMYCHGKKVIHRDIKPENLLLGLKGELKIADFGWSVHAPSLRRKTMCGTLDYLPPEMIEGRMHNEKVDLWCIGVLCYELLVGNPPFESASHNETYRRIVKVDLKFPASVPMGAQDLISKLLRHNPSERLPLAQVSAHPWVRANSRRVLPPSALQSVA
# UniProt O14578: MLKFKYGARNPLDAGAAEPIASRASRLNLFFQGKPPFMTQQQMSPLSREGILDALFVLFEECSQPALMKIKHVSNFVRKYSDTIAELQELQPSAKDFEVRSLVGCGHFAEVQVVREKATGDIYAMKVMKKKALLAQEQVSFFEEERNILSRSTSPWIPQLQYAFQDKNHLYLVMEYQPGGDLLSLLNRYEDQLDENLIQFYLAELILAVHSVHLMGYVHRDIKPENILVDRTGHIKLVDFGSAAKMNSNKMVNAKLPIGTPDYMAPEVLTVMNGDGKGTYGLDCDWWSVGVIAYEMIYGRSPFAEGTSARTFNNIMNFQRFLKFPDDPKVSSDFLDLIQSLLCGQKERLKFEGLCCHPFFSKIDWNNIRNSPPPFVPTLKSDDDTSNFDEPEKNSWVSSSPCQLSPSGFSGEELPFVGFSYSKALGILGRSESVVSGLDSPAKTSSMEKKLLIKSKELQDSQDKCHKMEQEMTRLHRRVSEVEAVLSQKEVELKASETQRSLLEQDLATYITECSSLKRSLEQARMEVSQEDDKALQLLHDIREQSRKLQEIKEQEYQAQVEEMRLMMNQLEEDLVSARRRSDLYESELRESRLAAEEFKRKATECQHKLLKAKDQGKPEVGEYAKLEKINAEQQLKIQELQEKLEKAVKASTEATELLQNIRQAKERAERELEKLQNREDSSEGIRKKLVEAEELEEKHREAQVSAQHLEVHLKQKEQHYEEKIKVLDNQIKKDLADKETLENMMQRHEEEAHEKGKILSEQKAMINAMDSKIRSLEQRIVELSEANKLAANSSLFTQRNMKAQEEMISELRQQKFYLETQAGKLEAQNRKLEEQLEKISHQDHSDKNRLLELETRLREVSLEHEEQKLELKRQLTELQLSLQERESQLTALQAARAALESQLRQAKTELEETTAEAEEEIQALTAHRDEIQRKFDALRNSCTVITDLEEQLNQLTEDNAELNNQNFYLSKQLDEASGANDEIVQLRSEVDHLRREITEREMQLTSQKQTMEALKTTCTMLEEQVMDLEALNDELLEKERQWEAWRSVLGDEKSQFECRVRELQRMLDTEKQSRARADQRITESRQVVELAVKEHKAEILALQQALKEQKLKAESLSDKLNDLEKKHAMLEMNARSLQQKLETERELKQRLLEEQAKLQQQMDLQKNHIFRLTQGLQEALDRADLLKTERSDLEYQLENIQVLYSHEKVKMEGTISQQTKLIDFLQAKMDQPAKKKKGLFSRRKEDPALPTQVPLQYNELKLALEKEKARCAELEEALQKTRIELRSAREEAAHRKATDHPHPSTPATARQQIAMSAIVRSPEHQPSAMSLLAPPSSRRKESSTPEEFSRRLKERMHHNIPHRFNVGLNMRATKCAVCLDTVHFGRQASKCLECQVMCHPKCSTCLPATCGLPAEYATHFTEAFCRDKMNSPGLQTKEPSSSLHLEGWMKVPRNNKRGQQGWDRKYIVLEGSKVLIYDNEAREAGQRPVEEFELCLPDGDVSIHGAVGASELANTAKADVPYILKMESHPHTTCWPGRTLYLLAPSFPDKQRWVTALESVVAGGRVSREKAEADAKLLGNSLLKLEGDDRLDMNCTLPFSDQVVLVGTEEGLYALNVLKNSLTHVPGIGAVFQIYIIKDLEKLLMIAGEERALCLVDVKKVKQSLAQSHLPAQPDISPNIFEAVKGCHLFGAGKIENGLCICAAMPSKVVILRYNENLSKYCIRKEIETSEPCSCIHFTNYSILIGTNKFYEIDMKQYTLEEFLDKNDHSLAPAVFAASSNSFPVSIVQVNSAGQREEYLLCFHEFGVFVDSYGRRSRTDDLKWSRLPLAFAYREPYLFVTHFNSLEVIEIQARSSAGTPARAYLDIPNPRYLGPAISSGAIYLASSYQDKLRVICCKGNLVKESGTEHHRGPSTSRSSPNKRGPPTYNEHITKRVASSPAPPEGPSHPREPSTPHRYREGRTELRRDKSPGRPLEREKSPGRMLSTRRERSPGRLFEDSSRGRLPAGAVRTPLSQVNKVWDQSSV
# UniProt P53350: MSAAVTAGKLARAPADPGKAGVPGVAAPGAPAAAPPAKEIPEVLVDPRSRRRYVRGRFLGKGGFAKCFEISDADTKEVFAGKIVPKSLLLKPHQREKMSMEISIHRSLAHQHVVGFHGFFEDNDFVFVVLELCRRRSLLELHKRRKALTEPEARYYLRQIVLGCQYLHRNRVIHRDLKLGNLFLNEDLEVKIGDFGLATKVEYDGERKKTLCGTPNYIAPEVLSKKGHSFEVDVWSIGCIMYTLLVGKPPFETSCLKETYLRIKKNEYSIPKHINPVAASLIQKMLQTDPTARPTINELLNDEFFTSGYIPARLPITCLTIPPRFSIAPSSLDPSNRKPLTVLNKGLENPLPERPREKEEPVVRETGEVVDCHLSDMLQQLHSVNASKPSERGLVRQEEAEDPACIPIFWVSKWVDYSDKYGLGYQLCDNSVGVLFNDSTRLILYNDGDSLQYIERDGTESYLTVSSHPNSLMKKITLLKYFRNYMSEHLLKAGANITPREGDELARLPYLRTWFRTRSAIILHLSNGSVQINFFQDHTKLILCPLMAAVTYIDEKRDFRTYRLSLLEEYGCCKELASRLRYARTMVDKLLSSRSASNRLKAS
# No constants are given. Whether binding was seen depends on the method and setting. In cells and extracts the contact can be indirect. Some binding calls cover weakened binding; strength is not graded here.
# Biological target: SRCAP (SNF2-related CBP activator protein) (human (endogenous in HeLa)) (UniProt Q6ZRS2)
# Experiment: co-IP; endogenous SRCAP immunoprecipitated with a rabbit polyclonal anti-SRCAP antibody (Kerafast) from the cytosolic fraction (S2, 2 mg/ml) of telophase-synchronized HeLa cells (thymidine/nocodazole blocks); negative control: beads without antibody; partners detected by Western blotting
row,Molecule,binding
1,Alix (from UniProt Q8WUM4 1-868),binds
2,Aurora B (from UniProt Q96GD4 1-344),binds
3,Cit-K (from UniProt O14578 1-2027),binds
4,MKLP2 (from UniProt O95235 1-890),binds
5,PLK1 (from UniProt P53350 1-603),binds
6,"CEP55 (protein, UniProt Q53EZ4 1-464) MSSRSTKDLIKSKWGSKPSNSKSETTLEKLKGEIAHLKTSVDEITSGKGKLTDKERHRLLEKIRVLEAEKEKNAYQLTEKDKEIQRLRDQLKARYSTTTLLEQLEETTREGERREQVLKALSEEKDVLKQQLSAATSRIAELESKTNTLRLSQTVAPNCFNSSINNIHEMEIQLKDALEKNQQWLVYDQQREVYVKGLLAKIFELEKKTETAAHSLPQQTKKPESEGYLQEEKQKCYNDLLASAKKDLEVERQTITQLSFELSEFRRKYEETQKEVHNLNQLLYSQRRADVQHLEDDRHKTEKIQKLREENDIARGKLEEEKKRSEELLSQVQFLYTSLLKQQEEQTRVALLEQQMQACTLDFENEKLDRQHVQHQLHVILKELRKARNQITQLESLKQLHEFAITEPLVTFQGETENREKVAASPKSPTAALNESLVECPKCNIQYPATEHRDLLVHVEYCSK",binds
7,"Anillin (protein, UniProt Q9NQW6 1-1124) MDPFTEKLLERTRARRENLQRKMAERPTAAPRSMTHAKRARQPLSEASNQQPLSGGEEKSCTKPSPSKKRCSDNTEVEVSNLENKQPVESTSAKSCSPSPVSPQVQPQAADTISDSVAVPASLLGMRRGLNSRLEATAASSVKTRMQKLAEQRRRWDNDDMTDDIPESSLFSPMPSEEKAASPPRPLLSNASATPVGRRGRLANLAATICSWEDDVNHSFAKQNSVQEQPGTACLSKFSSASGASARINSSSVKQEATFCSQRDGDASLNKALSSSADDASLVNASISSSVKATSPVKSTTSITDAKSCEGQNPELLPKTPISPLKTGVSKPIVKSTLSQTVPSKGELSREICLQSQSKDKSTTPGGTGIKPFLERFGERCQEHSKESPARSTPHRTPIITPNTKAIQERLFKQDTSSSTTHLAQQLKQERQKELACLRGRFDKGNIWSAEKGGNSKSKQLETKQETHCQSTPLKKHQGVSKTQSLPVTEKVTENQIPAKNSSTEPKGFTECEMTKSSPLKITLFLEEDKSLKVTSDPKVEQKIEVIREIEMSVDDDDINSSKVINDLFSDVLEEGELDMEKSQEEMDQALAESSEEQEDALNISSMSLLAPLAQTVGVVSPESLVSTPRLELKDTSRSDESPKPGKFQRTRVPRAESGDSLGSEDRDLLYSIDAYRSQRFKETERPSIKQVIVRKEDVTSKLDEKNNAFPCQVNIKQKMQELNNEINMQQTVIYQASQALNCCVDEEHGKGSLEEAEAERLLLIATGKRTLLIDELNKLKNEGPQRKNKASPQSEFMPSKGSVTLSEIRLPLKADFVCSTVQKPDAANYYYLIILKAGAENMVATPLASTSNSLNGDALTFTTTFTLQDVSNDFEINIEVYSLVQKKDPSGLDKKKKTSKSKAITPKRLLTSITTKSNIHSSVMASPGGLSAVRTSNFALVGSYTLSLSSVGNTKFVLDKVPFLSSLEGHIYLKIKCQVNSSVEERGFLTIFEDVSGFGAWHRRWCVLSGNCISYWTYPDDEKRKNPIGRINLANCTSRQIEPANREFCARRNTFELITVRPQREDDRETLVSQCRDTLCVTKNWLSADTKEERDLWMQKLNQVLVDIRLWQPDACYKPIGKP",binds
8,"Spastin (protein, UniProt Q9UBP0 1-616) MNSPGGRGKKKGSGGASNPVPPRPPPPCLAPAPPAAGPAPPPESPHKRNLYYFSYPLFVGFALLRLVAFHLGLLFVWLCQRFSRALMAAKRSSGAAPAPASASAPAPVPGGEAERVRVFHKQAFEYISIALRIDEDEKAGQKEQAVEWYKKGIEELEKGIAVIVTGQGEQCERARRLQAKMMTNLVMAKDRLQLLEKMQPVLPFSKSQTDVYNDSTNLACRNGHLQSESGAVPKRKDPLTHTSNSLPRSKTVMKTGSAGLSGHHRAPSYSGLSMVSGVKQGSGPAPTTHKGTPKTNRTNKPSTPTTATRKKKDLKNFRNVDSNLANLIMNEIVDNGTAVKFDDIAGQDLAKQALQEIVILPSLRPELFTGLRAPARGLLLFGPPGNGKTMLAKAVAAESNATFFNISAASLTSKYVGEGEKLVRALFAVARELQPSIIFIDEVDSLLCERREGEHDASRRLKTEFLIEFDGVQSAGDDRVLVMGATNRPQELDEAVLRRFIKRVYVSLPNEETRLLLLKNLLCKQGSPLTQKELAQLARMTDGYSGSDLTALAKDAALGPIRELKPEQVKNMSASEMRNIRLSDFTESLKKIKRSVSPQTLEAYIRWNKDFGDTTV",binds
